Structures can show the parent of a compound that is named as a salt. This is one part of the list. The calls rarely recur for the same compound in another form.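 In K562 cells expressing nanoluciferase-fused kinases, luminescence was recorded at 4 h intervals between 2 and 18 h, normalized as percent of control with DMSO at 100% and a positive control at 0%. A significant (2 sigma) signal drop marks a time point as decreased. The authors' rule for a hit is not shown and takes in more than the number of time points.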
Legend:
Assay in all cases: number of time points (of 5) at which kinase-Nluc abundance scored as decreased, DMSO-normalised (count); higher = more persistent destabilization
Settings in all cases: K562; 2-18 h
FLT3 = FLT3 (UniProt P36888)
FYN = FYN (UniProt P06241)
GSK3A = GSK3A (UniProt P49840)
HER2 = HER2 (UniProt P04626)
INSRR = INSRR (UniProt P14616)
IRAK3 = IRAK3 (UniProt Q9Y616)
JAK1 = JAK1 (UniProt P23458)
LCK = LCK (UniProt P06239)
LIMK1 = LIMK1 (UniProt P53667)
LIMK2 = LIMK2 (UniProt P53671)
LMTK2 = LMTK2 (UniProt Q8IWU2)
LYN = LYN (UniProt P07948)
MAP2K1 = MAP2K1 (UniProt Q02750)
MAP2K2 = MAP2K2 (UniProt P36507)
MAP4K2 = MAP4K2 (UniProt Q12851)
MAPK1 = MAPK1 (UniProt P28482)
MAPK4 = MAPK4 (UniProt P31152)
MAPKAPK2 = MAPKAPK2 (UniProt P49137)
MKNK1 = MKNK1 (UniProt Q9BUB5)
NTRK2 = NTRK2 (UniProt Q16620)

Amino acid sequences for entries named in this document (tags omitted). A change or cut given only in a name is not applied to a line headed by its entry.
UniProt P36888, whole entry: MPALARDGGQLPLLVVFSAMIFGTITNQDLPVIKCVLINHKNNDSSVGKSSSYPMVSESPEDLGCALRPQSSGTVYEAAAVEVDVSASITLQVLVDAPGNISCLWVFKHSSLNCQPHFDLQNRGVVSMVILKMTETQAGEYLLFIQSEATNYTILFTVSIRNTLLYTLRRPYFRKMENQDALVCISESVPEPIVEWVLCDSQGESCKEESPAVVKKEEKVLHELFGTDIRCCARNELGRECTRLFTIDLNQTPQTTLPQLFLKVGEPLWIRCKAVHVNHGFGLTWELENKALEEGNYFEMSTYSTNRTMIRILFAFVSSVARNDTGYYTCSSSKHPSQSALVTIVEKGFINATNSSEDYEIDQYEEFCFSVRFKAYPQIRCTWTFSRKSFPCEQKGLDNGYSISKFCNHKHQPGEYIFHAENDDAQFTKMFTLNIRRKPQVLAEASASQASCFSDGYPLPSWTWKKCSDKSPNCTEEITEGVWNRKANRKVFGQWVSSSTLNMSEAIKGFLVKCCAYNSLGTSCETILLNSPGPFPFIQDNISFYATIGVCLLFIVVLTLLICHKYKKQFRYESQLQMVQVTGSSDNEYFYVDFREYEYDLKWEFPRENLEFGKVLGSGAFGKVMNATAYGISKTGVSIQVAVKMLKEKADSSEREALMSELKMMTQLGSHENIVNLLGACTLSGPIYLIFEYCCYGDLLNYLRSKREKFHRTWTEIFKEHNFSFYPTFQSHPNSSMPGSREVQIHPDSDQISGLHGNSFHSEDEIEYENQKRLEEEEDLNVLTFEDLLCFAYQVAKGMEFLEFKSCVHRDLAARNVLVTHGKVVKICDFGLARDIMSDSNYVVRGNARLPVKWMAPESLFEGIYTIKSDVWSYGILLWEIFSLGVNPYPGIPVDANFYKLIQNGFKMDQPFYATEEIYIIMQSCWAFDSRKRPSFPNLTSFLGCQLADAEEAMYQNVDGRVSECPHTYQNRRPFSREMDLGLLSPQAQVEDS
UniProt P49840: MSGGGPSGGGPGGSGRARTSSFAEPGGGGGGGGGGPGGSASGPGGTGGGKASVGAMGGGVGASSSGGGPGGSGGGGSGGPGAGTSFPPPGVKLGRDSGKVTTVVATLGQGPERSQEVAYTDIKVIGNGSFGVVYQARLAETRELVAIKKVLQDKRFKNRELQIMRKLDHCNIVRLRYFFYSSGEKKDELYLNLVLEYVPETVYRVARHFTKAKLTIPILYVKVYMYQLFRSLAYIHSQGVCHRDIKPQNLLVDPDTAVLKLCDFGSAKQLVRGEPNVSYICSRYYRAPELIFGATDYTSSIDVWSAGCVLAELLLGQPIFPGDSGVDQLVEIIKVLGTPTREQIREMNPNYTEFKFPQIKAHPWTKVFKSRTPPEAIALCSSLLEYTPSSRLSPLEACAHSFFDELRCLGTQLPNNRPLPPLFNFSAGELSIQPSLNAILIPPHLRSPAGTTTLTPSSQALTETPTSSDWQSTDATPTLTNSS
UniProt P14616: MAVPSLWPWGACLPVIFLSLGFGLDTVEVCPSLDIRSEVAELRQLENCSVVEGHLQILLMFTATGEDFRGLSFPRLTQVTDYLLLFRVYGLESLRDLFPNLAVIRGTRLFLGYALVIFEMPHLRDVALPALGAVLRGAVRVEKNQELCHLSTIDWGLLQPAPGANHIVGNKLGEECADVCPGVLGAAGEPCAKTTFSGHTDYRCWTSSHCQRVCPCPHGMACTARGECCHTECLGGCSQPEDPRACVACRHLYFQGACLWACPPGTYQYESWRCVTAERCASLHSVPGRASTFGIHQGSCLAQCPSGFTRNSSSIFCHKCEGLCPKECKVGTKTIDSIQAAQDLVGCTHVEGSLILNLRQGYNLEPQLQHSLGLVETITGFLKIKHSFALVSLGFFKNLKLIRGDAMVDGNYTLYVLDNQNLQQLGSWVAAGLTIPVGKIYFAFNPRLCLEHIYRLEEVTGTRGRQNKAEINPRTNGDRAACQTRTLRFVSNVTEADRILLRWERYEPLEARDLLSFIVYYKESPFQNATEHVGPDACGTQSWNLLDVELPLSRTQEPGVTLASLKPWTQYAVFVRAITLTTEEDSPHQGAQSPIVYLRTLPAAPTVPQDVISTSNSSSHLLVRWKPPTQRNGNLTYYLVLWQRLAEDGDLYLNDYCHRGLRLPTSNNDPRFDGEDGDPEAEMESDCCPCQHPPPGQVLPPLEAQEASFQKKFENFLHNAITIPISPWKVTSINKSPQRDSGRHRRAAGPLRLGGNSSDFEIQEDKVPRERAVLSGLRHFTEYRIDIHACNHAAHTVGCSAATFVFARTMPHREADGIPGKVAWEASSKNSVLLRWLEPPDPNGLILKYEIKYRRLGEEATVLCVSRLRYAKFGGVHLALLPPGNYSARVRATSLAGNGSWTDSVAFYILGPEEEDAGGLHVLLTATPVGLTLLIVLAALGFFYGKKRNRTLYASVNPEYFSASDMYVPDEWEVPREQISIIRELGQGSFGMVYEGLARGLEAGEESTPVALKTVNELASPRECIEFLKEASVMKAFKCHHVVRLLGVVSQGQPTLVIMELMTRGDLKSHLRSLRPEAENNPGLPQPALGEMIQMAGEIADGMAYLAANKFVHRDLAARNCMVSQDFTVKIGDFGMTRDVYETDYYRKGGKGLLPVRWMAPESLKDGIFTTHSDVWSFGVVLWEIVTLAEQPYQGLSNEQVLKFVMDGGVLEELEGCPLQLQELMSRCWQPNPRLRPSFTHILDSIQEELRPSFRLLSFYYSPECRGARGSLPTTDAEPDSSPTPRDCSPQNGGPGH
UniProt P53667: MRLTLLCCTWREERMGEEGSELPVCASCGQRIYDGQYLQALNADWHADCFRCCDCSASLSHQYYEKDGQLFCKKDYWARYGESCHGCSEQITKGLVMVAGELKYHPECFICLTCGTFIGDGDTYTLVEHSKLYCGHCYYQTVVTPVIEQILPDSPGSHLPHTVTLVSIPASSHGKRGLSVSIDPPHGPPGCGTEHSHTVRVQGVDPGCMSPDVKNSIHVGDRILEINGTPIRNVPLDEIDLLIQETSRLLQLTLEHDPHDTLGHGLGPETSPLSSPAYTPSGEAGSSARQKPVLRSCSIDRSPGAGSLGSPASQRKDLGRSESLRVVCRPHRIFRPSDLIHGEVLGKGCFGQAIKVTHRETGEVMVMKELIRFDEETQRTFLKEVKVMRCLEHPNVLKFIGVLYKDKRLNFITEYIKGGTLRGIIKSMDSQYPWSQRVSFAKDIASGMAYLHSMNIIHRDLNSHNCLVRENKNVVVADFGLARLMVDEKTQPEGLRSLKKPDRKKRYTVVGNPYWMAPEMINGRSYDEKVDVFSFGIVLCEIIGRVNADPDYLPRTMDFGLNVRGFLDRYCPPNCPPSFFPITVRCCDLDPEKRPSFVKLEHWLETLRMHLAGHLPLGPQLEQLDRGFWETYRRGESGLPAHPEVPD
UniProt Q8IWU2: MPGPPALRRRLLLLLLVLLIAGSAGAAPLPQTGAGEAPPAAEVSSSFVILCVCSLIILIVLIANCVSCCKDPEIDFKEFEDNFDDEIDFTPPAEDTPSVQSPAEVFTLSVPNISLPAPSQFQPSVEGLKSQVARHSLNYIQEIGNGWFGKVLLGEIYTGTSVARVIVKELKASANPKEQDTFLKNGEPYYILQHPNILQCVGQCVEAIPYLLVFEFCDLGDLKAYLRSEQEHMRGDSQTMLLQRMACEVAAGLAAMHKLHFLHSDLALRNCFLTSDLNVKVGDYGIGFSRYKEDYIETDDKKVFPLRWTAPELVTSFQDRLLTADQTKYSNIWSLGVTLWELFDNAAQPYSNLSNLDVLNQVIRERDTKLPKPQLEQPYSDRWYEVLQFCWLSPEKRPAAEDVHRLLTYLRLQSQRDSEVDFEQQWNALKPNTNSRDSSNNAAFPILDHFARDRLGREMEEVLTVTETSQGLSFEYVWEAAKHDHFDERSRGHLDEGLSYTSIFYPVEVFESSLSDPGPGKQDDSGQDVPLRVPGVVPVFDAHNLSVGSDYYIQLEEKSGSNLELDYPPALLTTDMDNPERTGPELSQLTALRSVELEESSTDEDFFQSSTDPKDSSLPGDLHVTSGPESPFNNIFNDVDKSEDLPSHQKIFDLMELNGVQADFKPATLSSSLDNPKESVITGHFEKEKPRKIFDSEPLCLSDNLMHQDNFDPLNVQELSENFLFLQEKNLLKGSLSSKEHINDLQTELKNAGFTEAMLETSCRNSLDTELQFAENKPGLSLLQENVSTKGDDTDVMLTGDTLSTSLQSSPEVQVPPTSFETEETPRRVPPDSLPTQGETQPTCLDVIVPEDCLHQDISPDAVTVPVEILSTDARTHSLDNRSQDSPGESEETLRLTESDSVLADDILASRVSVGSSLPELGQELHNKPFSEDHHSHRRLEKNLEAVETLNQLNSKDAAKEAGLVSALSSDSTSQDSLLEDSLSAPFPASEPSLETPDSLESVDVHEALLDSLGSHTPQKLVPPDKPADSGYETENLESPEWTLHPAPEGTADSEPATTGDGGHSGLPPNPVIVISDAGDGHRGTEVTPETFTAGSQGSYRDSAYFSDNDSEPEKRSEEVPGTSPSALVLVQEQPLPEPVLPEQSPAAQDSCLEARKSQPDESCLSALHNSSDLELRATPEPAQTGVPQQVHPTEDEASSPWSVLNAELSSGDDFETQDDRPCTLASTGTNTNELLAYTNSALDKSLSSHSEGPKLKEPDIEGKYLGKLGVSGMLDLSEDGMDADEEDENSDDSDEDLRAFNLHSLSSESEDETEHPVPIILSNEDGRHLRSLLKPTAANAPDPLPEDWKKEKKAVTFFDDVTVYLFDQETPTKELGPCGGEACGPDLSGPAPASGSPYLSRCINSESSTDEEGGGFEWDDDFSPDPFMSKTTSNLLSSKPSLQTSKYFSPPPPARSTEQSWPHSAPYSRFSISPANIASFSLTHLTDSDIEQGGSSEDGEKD
UniProt Q12851: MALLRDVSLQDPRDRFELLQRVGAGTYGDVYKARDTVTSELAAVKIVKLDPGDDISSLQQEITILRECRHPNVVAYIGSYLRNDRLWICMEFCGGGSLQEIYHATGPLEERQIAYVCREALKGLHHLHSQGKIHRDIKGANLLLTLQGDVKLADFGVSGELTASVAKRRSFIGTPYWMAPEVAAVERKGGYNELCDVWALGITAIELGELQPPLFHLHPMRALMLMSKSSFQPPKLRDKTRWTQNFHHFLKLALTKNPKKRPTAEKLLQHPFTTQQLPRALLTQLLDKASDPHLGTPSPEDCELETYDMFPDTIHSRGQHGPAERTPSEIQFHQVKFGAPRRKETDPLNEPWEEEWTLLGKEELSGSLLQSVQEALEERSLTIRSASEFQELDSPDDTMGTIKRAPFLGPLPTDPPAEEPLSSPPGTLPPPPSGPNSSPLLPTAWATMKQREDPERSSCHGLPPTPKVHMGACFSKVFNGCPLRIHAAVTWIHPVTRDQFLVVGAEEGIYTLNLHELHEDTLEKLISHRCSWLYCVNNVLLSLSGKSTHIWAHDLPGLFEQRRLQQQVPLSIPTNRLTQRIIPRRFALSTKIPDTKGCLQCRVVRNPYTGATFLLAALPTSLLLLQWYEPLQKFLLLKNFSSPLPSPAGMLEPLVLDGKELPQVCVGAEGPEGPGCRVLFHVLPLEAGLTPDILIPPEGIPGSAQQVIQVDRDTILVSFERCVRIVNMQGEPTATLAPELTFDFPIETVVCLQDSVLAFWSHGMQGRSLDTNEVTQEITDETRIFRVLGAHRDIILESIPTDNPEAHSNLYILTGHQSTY
UniProt P28482, whole entry: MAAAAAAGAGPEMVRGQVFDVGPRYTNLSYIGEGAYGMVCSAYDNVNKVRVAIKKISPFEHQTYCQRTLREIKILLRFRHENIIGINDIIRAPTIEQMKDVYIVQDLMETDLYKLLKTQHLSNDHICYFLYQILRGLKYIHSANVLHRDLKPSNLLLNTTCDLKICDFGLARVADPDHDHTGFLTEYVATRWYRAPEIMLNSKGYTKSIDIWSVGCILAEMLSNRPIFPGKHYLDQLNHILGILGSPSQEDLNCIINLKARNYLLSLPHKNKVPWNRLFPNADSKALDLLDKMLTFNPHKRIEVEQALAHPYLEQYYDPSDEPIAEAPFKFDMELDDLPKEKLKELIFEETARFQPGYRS
UniProt Q9BUB5: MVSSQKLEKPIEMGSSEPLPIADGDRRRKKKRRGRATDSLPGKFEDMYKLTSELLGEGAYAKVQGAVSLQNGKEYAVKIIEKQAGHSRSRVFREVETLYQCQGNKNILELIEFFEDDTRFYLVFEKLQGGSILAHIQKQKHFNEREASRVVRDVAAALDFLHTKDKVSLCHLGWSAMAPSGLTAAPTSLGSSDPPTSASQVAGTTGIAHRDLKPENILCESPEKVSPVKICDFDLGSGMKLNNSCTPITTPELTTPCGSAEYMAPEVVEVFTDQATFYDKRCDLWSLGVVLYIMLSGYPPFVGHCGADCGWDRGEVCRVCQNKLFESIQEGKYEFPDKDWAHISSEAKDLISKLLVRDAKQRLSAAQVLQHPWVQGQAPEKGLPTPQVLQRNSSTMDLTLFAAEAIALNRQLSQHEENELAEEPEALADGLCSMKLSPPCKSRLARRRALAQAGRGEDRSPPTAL

Compound	number of time points (FLT3)	number of time points (FYN)	number of time points (GSK3A)	number of time points (HER2)	number of time points (INSRR)	number of time points (IRAK3)	number of time points (JAK1)	number of time points (LCK)	number of time points (LIMK1)	number of time points (LIMK2)	number of time points (LMTK2)	number of time points (LYN)	number of time points (MAP2K1)	number of time points (MAP2K2)	number of time points (MAP4K2)	number of time points (MAPK1)	number of time points (MAPK4)	number of time points (MAPKAPK2)	number of time points (MKNK1)	number of time points (NTRK2)
C[C@H](Nc1cc2c(-c3ccc4c(c3)OCO4)noc2cn1)c1ccccc1 (10 µM)	0	0	0	0	0	0	0	0	0	0	0	0	0	0	0	0	0	0	0	0
CN1C(=O)[C@@H](NC(=O)c2cc(Cc3ccccc3)on2)COc2ccccc21 (10 µM)	0	0	0	0	0	0	0	0	0	0	0	0	0	0	0	0	0	0	0	0
CN1CCN(Cc2ccc(-c3cnc4[nH]cc(-c5ccc6[nH]ccc6c5)c4c3)cc2)CC1 (2.5 µM)	0	2	0	0	0	3	0	0	2	0	0	0	0	0	0	0	0	0	0	0
Cc1ccc2c(NS(=O)(=O)c3ccccc3Cl)cccc2c1Oc1ncccc1-c1ccnc(N[C@H]2CCCNC2)n1 (2.5 µM)	0	0	0	0	0	0	0	0	0	0	0	0	0	0	0	0	0	0	0	0
O=C(NCc1ccn[nH]1)c1cc([C@@H]2CCNC[C@H]2COc2ccc3c(c2)OCO3)ccc1F [GRK2-IN-1 (hydrochloride)] (10 µM)	0	0	0	0	0	0	0	0	0	0	0	0	0	0	0	0	0	0	0	0
COc1ccc2nc3ccc(OC)cc3c(SCCCN)c2c1 (10 µM)	0	3	0	0	0	0	0	0	3	0	4	0	0	0	0	0	0	3	3	0
O=C(C#Cc1ccccc1)c1cccc([N+](=O)[O-])c1 (10 µM)	0	0	0	0	0	0	0	0	0	0	0	0	0	0	0	0	0	0	0	0
CO/N=C1/C(c2c(O)[nH]c3cc(Cl)c(Cl)cc23)=Nc2ccccc21 (10 µM)	0	0	0	0	0	0	0	0	0	0	0	0	0	0	0	0	0	0	0	0
O=C(O)c1c[nH]c2cc(Cl)c(-c3ccc(C4(O)CCC4)cc3)cc12 (10 µM)	0	0	0	0	0	0	0	0	0	0	0	0	0	0	0	0	0	0	0	0
CCNC(=O)Nc1ccc(-c2nc3c(c(N4CCOC[C@@H]4C)n2)CCN(C2COC2)C3)cc1 (2.5 µM)	0	0	0	0	0	0	0	0	0	0	0	0	0	0	0	0	0	0	0	0
O=CN1CCN(c2ccc(C=C3C(=O)Nc4ccccc43)cc2)CC1 (10 µM)	0	0	0	0	0	0	0	0	0	0	0	0	0	0	0	0	0	0	0	0
O=c1cc(N2CCOCC2)oc2c(-c3cccc4c3sc3ccccc34)cccc12 (10 µM)	0	0	0	0	0	0	0	0	0	0	0	0	0	0	0	0	0	0	0	0

Single entries from the entries so far.
In number of time points (LIMK2), C[C@H](Nc1cc2c(-c3ccc4c(c3)OCO4)noc2cn1)c1ccccc1 (10 µM) reads 0
In number of time points (LIMK1), O=C(NCc1ccn[nH]1)c1cc([C@@H]2CCNC[C@H]2COc2ccc3c(c2)OCO3)ccc1F [GRK2-IN-1 (hydrochloride)] (10 µM) reads 0
